Test results reported in patent publication US20100137561 (published 2010).
Square brackets hold non-standard residues; d marks the D form. * marks the point of attachment. Gln(Trt) = N[C@@H](CCC(=O)NC(c1ccccc1)(c1ccccc1)c1ccccc1)C(=O)O; Pbf = Cc1c(C)c(S(=O)(=O)*)c(C)c2c1OC(C)(C)C2; Trt = c1ccc(C(c2ccccc2)(c2ccccc2)*)cc1; Fmoc = O=C(OCC1c2ccccc2-c2ccccc21)*; Boc = CC(C)(C)OC(=O)*; OtBu = CC(C)(C)O*; tBu = CC(C)(C)*

What was measured:
[1] = general procedure: hybrid (solid and solution phase) peptide synthesis; H-Gly-2-CT resin (2-chlorotrityl), loading 0.43 mmol/g; DIC/6-Cl HOBT (solid phase); BOP/HOBt/DIEA (fragment coupling in solution)
[2] = general procedure: hybrid (solid and solution phase) peptide synthesis; H-Gly-2-CT resin; DIC/6-Cl HOBT (solid phase); BOP/HOBt/DIEA (fragment coupling in solution); conditions: whole synthesis, scale of the general procedure 100.00 g resin
[3] = coupling step, HPLC (area normalisation, AN)
[4] = whole synthesis, HPLC (area normalisation, AN), scale of the general procedure 100.00 g resin

Row | Substance | step yield ([1]; coupling step) | crude HPLC purity [1, 3] | crude yield [2] | crude HPLC purity [1, 4] | further results
1 | Boc-Asp(OtBu)-Ser(tBu)-Trp(Boc)-Met-Glu(OtBu)-Glu(OtBu)-Val-Ile-Lys(Boc)-Leu-Cys(Trt)-Gly-Arg(Pbf)-Glu(OtBu)-Leu-Val-Arg(Pbf)-Ala-Gln(Trt)-Ile-Ala-Ile-Cys(Trt)-Gly-Met-Ser(OtBu)-Thr(OtBu)-Trp-Ser(OtBu)-OtBu | 99.3% | 56.4% AN | – | – | step yield ([1]; coupling step, based on Fragment 2+3'): 93.2%
2 | Fmoc-Met-Ser(OtBu)-Thr(OtBu)-Trp-Ser(OtBu)-OtBu | – | 87.3% a. n. | – | – | –
3 | H-Asp-Ser-Trp-Met-Glu-Glu-Val-Ile-Lys-Leu-Cys-Gly-Arg-Glu-Leu-Val-Arg-Ala-Gln-Ile-Ala-Ile-Cys-Gly-Met-Ser-Thr-Trp-Ser-OH | – | – | – | – | crude HPLC purity ([1]; late stage modification step, HPLC (area normalisation, AN)): 19.4% AN
4 | Fmoc-R(Pbf)E(OtBu)LVR(Pbf)A[Gln(Trt)]IAIC(Trt)G-OH | – | – | 81.0% | 91.9% purity, a. n. | –
5 | Boc-D(OtBu)S(tBu)W(Boc)ME(OtBu)E(OtBu)VIK(Boc)LC(Trt)G-OH | – | – | 98.4% | 78.8% purity, AN | –
6 | H-Arg(Pbf)-Glu(OtBu)-Leu-Val-Arg(Pbf)-Ala-Gln(Trt)-Ile-Ala-Ile-Cys(Trt)-Gly-Met-Ser(OtBu)-Thr(OtBu)-Trp-Ser(OtBu)-OtBu | 95.3% | – | – | – | final HPLC purity [1, 3]: 48.6% AN; step yield ([1]; coupling step, based on Fragment 2): 104.4%
